# PubChem BioAssay AID1259281 | Sanger Institute, 2017
# Assay: 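Find knock-downs that kill colorectal cancer cells alone or strengthen targeted drugs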 (primary screen)
# Cell system: human COLO678 colorectal cancer cell line
# Knock-down reagent: siRNA pool against human genes
# Challenge: anchor drugs at fixed doses: BYL719 1 µM, cetuximab 5 µg/ml or trametinib 10 nM; DMSO vehicle for the siRNA-alone arm
# Measured: 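Surviving cells scaled to non-targeting siRNA control as replicate means; robust z-score for knock-down alone; synergy scores weigh knock-down with drug against the predicted combined effect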
# Scale: robust z-score, siRNA alone: higher = more viable cells; strongly negative means essential; viability, siRNA alone: higher = more surviving cells
# Rule for the call: 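Essential (knock-down alone) when the siRNA-alone robust z-score is below -3; otherwise no change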
# Calls: active = essential (knock-down alone); inactive = no change
# This is an unselected part of 794 reagents tested. In the full data, 22 (2.8%) got an active call. 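Calls rest on knock-down alone only; drug synergy scores play no part in them.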 Unmarked entries are inactive. No viability above 1 is reported: the scale is capped. Further read-outs or replicates are left out here. Not stated in the record: the amount of reagent, the time to read-out.
gene,"robust z-score, siRNA alone","viability, siRNA alone (fraction of control)"
KALRN (kalirin RhoGEF kinase),0.112,0.989
ERBB2 (erb-b2 receptor tyrosine kinase 2),0.473,1
CSNK2A2 (casein kinase 2 alpha 2),0.473,1
AK4 (adenylate kinase 4),-0.943,0.955
PRKCA (protein kinase C alpha),0.473,1
MARK4 (microtubule affinity regulating kinase 4),0.25,0.993
FBXW7 (F-box and WD repeat domain containing 7),0.473,1
KCNH8 (potassium voltage-gated channel subfamily H member 8),-1.01,0.953
MAST4,0.473,1
KSR1 (kinase suppressor of ras 1),-4.49 (active),0.842
MAP3K3 (mitogen-activated protein kinase kinase kinase 3),0.473,1
PAPSS1 (3'-phosphoadenosine 5'-phosphosulfate synthase 1),0.255,0.993
MAP2K3 (mitogen-activated protein kinase kinase 3),0.473,1

Next part, starting with the last 2 of the part before.
gene,"robust z-score, siRNA alone","viability, siRNA alone (fraction of control)"
PAPSS1 (3'-phosphoadenosine 5'-phosphosulfate synthase 1),0.255,0.993
MAP2K3 (mitogen-activated protein kinase kinase 3),0.473,1
"GUCY2F (guanylate cyclase 2F, retinal)",0.473,1
MKNK2 (MAPK interacting serine/threonine kinase 2),-1.47,0.938
CDKN1B (cyclin dependent kinase inhibitor 1B),0.202,0.991
SLK (STE20 like kinase),0.473,1
LRRK1 (leucine rich repeat kinase 1),0.473,1
MAP3K12 (mitogen-activated protein kinase kinase kinase 12),0.473,1
TLK2 (tousled like kinase 2),0.473,1
